# Data from article PMC7819943, “Rice protein-binding microarrays: a tool to detect cis-acting elements near promoter regions in rice”.
# This is one part of the list.
# Target: T1, OsSMF1 (Oryza sativa, UniProt Q6ZLB0 1-436)
# T1 sequence: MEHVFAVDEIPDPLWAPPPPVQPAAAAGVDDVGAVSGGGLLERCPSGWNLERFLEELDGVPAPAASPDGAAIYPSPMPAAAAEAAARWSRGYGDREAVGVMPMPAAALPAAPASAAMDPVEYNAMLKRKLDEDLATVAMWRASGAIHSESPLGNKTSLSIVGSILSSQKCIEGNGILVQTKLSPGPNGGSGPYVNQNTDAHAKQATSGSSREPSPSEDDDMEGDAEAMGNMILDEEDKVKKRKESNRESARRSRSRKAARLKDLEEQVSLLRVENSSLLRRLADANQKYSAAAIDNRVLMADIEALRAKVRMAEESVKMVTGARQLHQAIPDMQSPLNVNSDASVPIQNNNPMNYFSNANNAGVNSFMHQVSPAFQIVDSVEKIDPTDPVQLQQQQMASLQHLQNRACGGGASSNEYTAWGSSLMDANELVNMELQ
# Assay: protein-binding microarray (RPBM); PBS, 2% BSA, 51.3 ng/ul salmon testes DNA, 50 uM zinc acetate, 200 nM TF, 25 C, 1 h; high values mean tight binding
# Settings: protein: recombinant; tags: N-terminal polyhistidine and DsRed monomer fusion (pET32a); chain copies: 2; label: CyDye5-dUTP incorporated in the synthesized complementary strand; 3' TTTTT single-stranded linker to array surface; dsDNA, one strand shown
# Outline: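 Transcription factors, each fused N-terminally to a polyhistidine tag and DsRed, were expressed in E. coli BL21-CodonPlus and purified on Ni–NTA. A custom Agilent array was made double-stranded by primer extension with Cy5-dUTP and blocked with 2% BSA. It was incubated with 200 nM protein in PBS, 2% BSA, salmon testes DNA and 50 µM zinc acetate at 25 °C for 1 h, then washed. The binding signal is per-feature fluorescence intensity (arbitrary units) read on an Axon 4000B scanner.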
row,Sequence,binding signal
1,GTACCAAATGAAAGTGAAACAAATGAAACAAAAGAAGATGCGGAGTCACCTAGTGCAG,3960 fluorescence intensity (a.u.)
2,ATTACATGATAAAACATAAATAGTACTTTATGCGTCATAGCGGAGTCACCTAGTGCAG,5140 fluorescence intensity (a.u.)
3,GTCGAAACAAATGGTAAGGGCAAAAGTGTCAAACCACCTACGGAGTCACCTAGTGCAG,4060 fluorescence intensity (a.u.)
4,GTGAACAAATCAGCTTGTGTTGTTTATCACCAAGTCATTGCGGAGTCACCTAGTGCAG,20200 fluorescence intensity (a.u.)
5,CACGAAAACTGAACTCCCTGCCACGGCCACCGTGTCAGCACGGAGTCACCTAGTGCAG,5570 fluorescence intensity (a.u.)
6,GCACTTCAGCTTTTCTGATCTACTCACCATCATCATCAGCCGGAGTCACCTAGTGCAG,4130 fluorescence intensity (a.u.)
7,GCCGAGAACGTAGTGCCGCGTGTAGATGACGCCCGTGGCCCGGAGTCACCTAGTGCAG,5490 fluorescence intensity (a.u.)
8,GAAAGGAAAGAGAGAGGAAGCTGACGTGGCCACGCTGACACGGAGTCACCTAGTGCAG,16000 fluorescence intensity (a.u.)
9,AGCGTCTTGCTATGTCCACCTCACGTACAGACAACACGATCGGAGTCACCTAGTGCAG,5640 fluorescence intensity (a.u.)
10,GCTTGATATCGTACTACGTGGACCCTCATTCCAACGTACCCGGAGTCACCTAGTGCAG,3360 fluorescence intensity (a.u.)
11,CTCCGGCTGATCTCGACGGCGCACGTCAGTCAGCGTATCTCGGAGTCACCTAGTGCAG,4250 fluorescence intensity (a.u.)
12,GCGTCCATGGCCGCCGCCTCGTCCGCCGCGCGCCAGGCGGCGGAGTCACCTAGTGCAG,3850 fluorescence intensity (a.u.)
13,TATGTGTGCTGTTAGCTGTGGACCTGACTTGGCCTGGTAACGGAGTCACCTAGTGCAG,3140 fluorescence intensity (a.u.)
14,CTCCATGCGCTGACGTGACATTGCCACAGTGGTGCCTACGCGGAGTCACCTAGTGCAG,7290 fluorescence intensity (a.u.)
15,AGTTCCATGCAATGCCACGTACTCCTCGCTACCTGCTGGGCGGAGTCACCTAGTGCAG,18000 fluorescence intensity (a.u.)
16,ATGCGGCTGATGTGTATGTTTGACAACTTATTTGTGGATTCGGAGTCACCTAGTGCAG,6030 fluorescence intensity (a.u.)
17,TGTGCTTCTGAAACTGATGGTGTTTCTGACGAAGGCCACGCGGAGTCACCTAGTGCAG,3180 fluorescence intensity (a.u.)
18,CACTGACTTAGCTCCGAGGTGGACGCACCAAGGCCACTTGCGGAGTCACCTAGTGCAG,3990 fluorescence intensity (a.u.)
19,TATCCGGCTGCCTCGTGTCCAGACACCTGGCACAACACACCGGAGTCACCTAGTGCAG,3750 fluorescence intensity (a.u.)
20,TAACGGCTCCGCGTCGTGTGAGTTGGCGAGCCCGAGGAGCCGGAGTCACCTAGTGCAG,4970 fluorescence intensity (a.u.)
21,TGGTCATGGCGTACGCTGCCGTGTCATTCGATCTCTGCTCCGGAGTCACCTAGTGCAG,10700 fluorescence intensity (a.u.)

row,Sequence,binding signal
1,GGCTGTCTGTCTGTCTCTCCCCGCACATGTCAGCCTACTACGGAGTCACCTAGTGCAG,4180 fluorescence intensity (a.u.)
2,TTTTATCGGTGTTTTGGTACGTCATCTTTGTTTGAGTCGGCGGAGTCACCTAGTGCAG,7170 fluorescence intensity (a.u.)
3,TTGCGCGTCAGGCCGGCGTCTCCGTGATTCTCCCCGTCCCCGGAGTCACCTAGTGCAG,3180 fluorescence intensity (a.u.)
4,AGGGCTAGGCGGACGCCCTGGTCGAGCTGCTGATCAAGCACGGAGTCACCTAGTGCAG,3460 fluorescence intensity (a.u.)
5,ATTAACGATTTCTCACACCCTATCTATGACATGTGGGCCTCGGAGTCACCTAGTGCAG,5700 fluorescence intensity (a.u.)
6,GAGGCATGGCCCACGCAACGCGCCAAGCCACCACATCACGCGGAGTCACCTAGTGCAG,4660 fluorescence intensity (a.u.)
7,AAAGCAAAACATGACTCCACTTCCGTGCTGTACTCTGGTGCGGAGTCACCTAGTGCAG,4620 fluorescence intensity (a.u.)
8,AGCCTCACTTCGGGCCGACCGTGCCAACGGGCTGACTAGGCGGAGTCACCTAGTGCAG,4970 fluorescence intensity (a.u.)
9,CTGGATGAGCAGACGCAGGCGCGGGTGCCTCACGTGATGCCGGAGTCACCTAGTGCAG,7160 fluorescence intensity (a.u.)
10,TCCCACTATCTCATGACATATGAGAAGAGAGAGAGATAGACGGAGTCACCTAGTGCAG,5490 fluorescence intensity (a.u.)
11,TGCCTCTCTTTTCCCTCCGGTGGCGGTGATGGCGTCGGCGCGGAGTCACCTAGTGCAG,3460 fluorescence intensity (a.u.)
12,TCCCCTCCCGTCCCGTCCCCGAGCGGAAATAAATGCAGCCCGGAGTCACCTAGTGCAG,3350 fluorescence intensity (a.u.)
13,ATTTAGTGGTTTCTATGTCCACTTAGTCACACCCTGATCTCGGAGTCACCTAGTGCAG,4460 fluorescence intensity (a.u.)
14,TACGTACGCACACGCACGCTATAAATTGCACCATCATCTCCGGAGTCACCTAGTGCAG,3960 fluorescence intensity (a.u.)
15,AACTGACATGTGAGTCACTAGTCTAATACGAAAGATTTAGCGGAGTCACCTAGTGCAG,7340 fluorescence intensity (a.u.)
16,ACTATTTACCACTCTTACAAGTGACAATTAAAGATTTGCCCGGAGTCACCTAGTGCAG,3340 fluorescence intensity (a.u.)
17,CGTGGGCGCTCCCTGTCATCGGCCACCTCCACCACGTCGCCGGAGTCACCTAGTGCAG,5620 fluorescence intensity (a.u.)
18,CTGACACATCGGGCCCACATAATCCGACCCCACCTGTCACCGGAGTCACCTAGTGCAG,3370 fluorescence intensity (a.u.)
19,GAGGATGCTGACGTCATCGAACGTGCCGCCGCCGCGGCGACGGAGTCACCTAGTGCAG,8120 fluorescence intensity (a.u.)
20,GGCTGTGTCACGCCTCACCATGCCGACGCATTTCTCCGTGCGGAGTCACCTAGTGCAG,3830 fluorescence intensity (a.u.)
21,AGCTTTTCTTTTCTACACAAAGGGAAGGGAAAGAAGAAACCGGAGTCACCTAGTGCAG,37800 fluorescence intensity (a.u.)

# Exported with tabs: part of the list above.
row	Sequence	binding signal
7	AAAGCAAAACATGACTCCACTTCCGTGCTGTACTCTGGTGCGGAGTCACCTAGTGCAG	4620 fluorescence intensity (a.u.)
8	AGCCTCACTTCGGGCCGACCGTGCCAACGGGCTGACTAGGCGGAGTCACCTAGTGCAG	4970 fluorescence intensity (a.u.)
9	CTGGATGAGCAGACGCAGGCGCGGGTGCCTCACGTGATGCCGGAGTCACCTAGTGCAG	7160 fluorescence intensity (a.u.)
